Measurements as given in US12458643B2, “Antidepressant/anxiolytic drug in which PAC1 receptor antagonist is used” (KAGOSHIMA UNIVERSITY, priority 2020, dated 2025).
At least one compound was matched to its structure with a doubt left.

How the values were obtained:
Type in all cases: in vivo, mouse
[1] = system: normal mice; assay: Open field test in normal mice; details: normal male C57BL/6J mice, 30 mg/kg i.p., 60 min after administration, 10 min test
Method: The effects of PA-8 and PA-81004 on normal mice were evaluated by an open field test (test to measure spontaneous locomotion in a novel environment by exploiting the properties of mice to do exploratory behavior in such a novel environment, and using a 40 cm×40 cm box of 30 cm in height; spontaneous motor activity is measured from the total distance traveled; in this test, anxiety-like behavior is evaluated by exploiting the properties of mice to prefer to stay near walls and avoid light environments, and measuring a time spent in a center zone (20 cm×20 cm) or the number of entries thereto). Male C57BL/6J mice (8 to 12 weeks old) were acclimatized to a laboratory (illuminance: 40 lx) for 60 minutes. Then, a vehicle (10% DMSO solution; dissolved in saline; n=11), PA-8 (30 mg/kg; n=9) or PA-81004 (30 mg/kg; n=12) was intraperitoneally administered thereto (0.1 mL/10 g). After a lapse of 60 minutes after administration, the test was conducted for 10 minutes. The results are shown in FIG. 1 (A: total distance traveled, B: the number of center zone entries, C: time spent in the center zone). The effects of PA-9 and PA-915 on normal mice were evaluated by the open field test. Male C57BL/6J mice (8 to 12 weeks old) were acclimatized to a laboratory (illuminance: 40 lx) for 60 minutes. […]

[2] = system: plasma corticosterone level; assay: Repeated corticosterone administration, plasma corticosterone level (ELISA); details: male mice, corticosterone 20 mg/kg s.c. 21 days; single i.p. PA-915 30 mg/kg, ketamine 20 mg/kg; next day
Method: A vehicle (0.5% carboxymethylcellulose solution) or corticosterone (20 mg/kg) was subcutaneously administered (0.1 mL/10 g) to male C57BL/6J mice (7 weeks old) for 21 days. A vehicle (10% DMSO solution; dissolved in saline; n=4), PA-915 (30 mg/kg; n=4) or ketamine (20 mg/kg; n=4) was intraperitoneally administered thereto (0.1 mL/10 g) 3 hours after administration on the 21st day. On the next day, the mice were subjected to the forced swim test and then decapitated, and systemic circulating blood was collected. The plasma corticosterone level was measured using Corticosterone ELISA kit from Cayman Chemical Company. Mice given the vehicle by repeated administration without repeated corticosterone administration were used as a control (n=4). The data was indicated by mean±standard error. **P<0.01 (One-way ANOVA followed by Tukey-Kramer test).

[3] = system: single-restraint stress mice; assay: Single-restraint stress-induced anxiety-like behavior, light-dark test; details: 30 mg/kg i.p. 30 min before 30 min restraint; 10 min test
Method: Male C57BL/6J mice (8 to 12 weeks old) were acclimatized to a laboratory (illuminance: 330 lx) for 60 minutes. Then, a vehicle (10% DMSO solution; dissolved in saline; n=9), PA-8 (30 mg/kg; n=9) or PA-81004 (30 mg/kg; n=10) was intraperitoneally administered thereto (0.1 mL/10 g). After a lapse of 30 minutes after administration, restraint stress (stress caused by holding the mice in tubes of 2.8 cm in diameter with a hole for breathing) was applied thereto for 30 minutes. The light-dark test (10 min) was conducted from immediately after the completion of restraint. Mice that freely behaved in a home cage for 30 minutes without being held and without accessing water and food were used as a control (n=12). The results are shown in FIG. 10 (A: time spent in the light box, B: the number of transitions between the light and dark boxes; light box illuminance: 330 lx). The data was indicated by mean±standard error. **P<0.01, *P<0.05 (One-way ANOVA followed by Tukey-Kramer test). […] Male C57BL/6J mice (8 to 12 weeks old) were acclimatized to a laboratory (illuminance: 330 lx) for 60 minutes. Then, a vehicle (10% DMSO solution; dissolved in saline; n=11), PA-9 (30 mg/kg; n=8) or PA-915 (30 mg/kg; n=9) was intraperitoneally administered thereto (0.1 mL/10 g). […]

Structure (SMILES): O=C(NCCc1c[nH]cn1)C1CC(=O)N(c2n[nH]c3c(Cl)cccc23)C1 (stereo not drawn) [PA-915, N-[2-(1H-imidazol-4-yl)ethyl]-1-(7-chloro-1H-indazol-3-yl)-5-oxo-3-pyrrolidinecarboxamide]
- pharmacological action in open field test (total distance traveled, center zone entries, time in center zone) [1]: no pharmacological action
- effect on plasma corticosterone level [2]: decreased the plasma corticosterone level
- effect on single-restraint stress-induced anxiety-like behavior (light-dark test) [3]: improving effects
